The assay relates to PC3 (prostate). The assay can be described thus: MTT in vitro cytotoxic activity, PC3. Type of assay: cell-based. As to conditions: Homo sapiens; 96 hours exposure; 50% inhibition of cell proliferation; read-out: Cytotoxicity activity IC50, PC3 (prostate). Here is the method: Compounds 1-16 were screened for their in vitro cytotoxic activity utilizing a 3-(4,5-dimethyl-thiazol-2-yl)-2,5-diphenyltetrazolium bromide (MTT) assay against selected cancer human cell lines consisting of PC3 (prostate), HCT116 (colon), A375 (melanoma), H1299 (lung), MIAPaCa-2 (pancreas), HL60 (leukemia), MCF7 (breast), MDA-MB-231 (breast) (T. Mosmann, J. Immunol. Meth., 1983, 65, 55-63). The cells were cultured at 37° C. in RMPI1640 medium supplemented with 10% fetal bovine serum, 50 IU/mL penicillin, and 50 μg/mL streptomycin in a 5% CO2 incubator. All cells were sub-cultured 3 times/week by trypsinisation. Viable cells were seeded and allowed to adhere for 12 hours before a test drug was added in 96-well plates at an initial density of 1.0×10^5 cells/mL. Tumor cell lines were separately exposed to various concentrations of the tested compounds followed by incubation at a temperature of 37° C. during 96 hours inside a medium of fresh RMPI 1640. Cells were subsequently incubated at 37° C. using MTT at 0.5 mg/mL during 4 hours. After removal of supernatant, formazan crystals were dissolved in isopropanol and the optical density was measured at 570 nm. CX-4945 was used as a positive control.

One may read the IC50 as the concentration that inhibits the measured activity by half.

For the compound `O=C(O)c1ccc2c(c1)nc(Nc1cccc(Cl)c1)c1ccncc12` [CX-4945], the IC50 came to 2 µM.

(Values after patent publication US11987581B1 (KING FAISAL UNIVERSITY, priority 2023, dated 2024).)
